{"source": "paper PMC12204631", "note": "Results are given in words; binding and its absence hold for the method and conditions named. In cells and extracts the contact can be indirect. These calls come from enrichment with a bait or labelling near it, and not all partners need be listed. Where a sequence is shown, tags or fusion partners need not be part of it."}
{"target": "T1, 6HIS-HA-JHD2 (S. cerevisiae) (UniProt P47156)", "T1 sequence": "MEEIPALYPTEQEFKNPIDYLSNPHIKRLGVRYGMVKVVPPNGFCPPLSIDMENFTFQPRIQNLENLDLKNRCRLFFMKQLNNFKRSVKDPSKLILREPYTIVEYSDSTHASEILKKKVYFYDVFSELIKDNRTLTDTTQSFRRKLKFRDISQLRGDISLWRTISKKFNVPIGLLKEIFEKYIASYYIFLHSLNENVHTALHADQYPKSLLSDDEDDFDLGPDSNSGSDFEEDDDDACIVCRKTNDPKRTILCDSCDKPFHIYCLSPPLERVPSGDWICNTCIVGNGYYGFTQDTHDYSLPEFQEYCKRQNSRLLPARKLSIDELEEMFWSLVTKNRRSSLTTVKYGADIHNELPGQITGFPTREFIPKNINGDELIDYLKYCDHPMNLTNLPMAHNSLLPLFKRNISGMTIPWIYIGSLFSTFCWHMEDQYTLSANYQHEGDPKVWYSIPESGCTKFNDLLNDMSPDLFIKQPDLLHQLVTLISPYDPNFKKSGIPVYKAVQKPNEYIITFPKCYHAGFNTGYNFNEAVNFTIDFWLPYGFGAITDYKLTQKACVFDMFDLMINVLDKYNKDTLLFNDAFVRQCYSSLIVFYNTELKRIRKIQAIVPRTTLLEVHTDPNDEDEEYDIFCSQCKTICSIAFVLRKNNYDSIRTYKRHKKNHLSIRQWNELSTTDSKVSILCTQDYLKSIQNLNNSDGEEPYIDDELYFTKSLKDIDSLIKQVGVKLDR", "assay": "affinity purification with mass spectrometry; whole cell extracts of a wild-type strain with 6HIS-HA-JHD2 induced from the GAL1 promoter for 6 hours; Ni-NTA agarose and anti-HA agarose beads at 4°C for 24 hours; proteins found with the empty vector strain excluded"}
{"binder": "ASM4 (protein, UniProt Q05166 1-528) MFGIRSGNNNGGFTNLTSQAPQTTQMFQSQSQLQPQPQPQPQQQQQHLQFNGSSDASSLRFGNSLSNTVNANNYSSNIGNNSINNNNIKNGTNNISQHGQGNNPSWVNNPKKRFTPHTVIRRKTTKQNSSSDINQNDDSSSMNATMRNFSKQNQDSKHNERNKSAANNDINSLLSNFNDIPPSVTLQDWQREDEFGSIPSLTTQFVTDKYTAKKTNRSAYDSKNTPNVFDKDSYVRIANIEQNHLDNNYNTAETNNKVHETSSKSSSLSAIIVFGYPESISNELIEHFSHFGHIMEDFQVLRLGRGINPNTFRIFHNHDTGCDENDSTVNKSITLKGRNNESNNKKYPIFTGESWVKLTYNSPSSALRALQENGTIFRGSLIGCIPYSKNAVEQLAGCKIDNVDDIGEFNVSMYQNSSTSSTSNTPSPPNVIITDGTLLREDDNTPAGHAGNPTNISSPIVANSPNKRLDVIDGKLPFMQNAGPNSNIPNLLRNLESKMRQQEAKYRNNEPAGFTHKLSNWLFGWNDL", "binding": "binds"}
{"binder": "LOS1 (protein, UniProt P33418 1-1100) MLERIQQLVNAVNDPRSDVATKRQAIELLNGIKSSENALEIFISLVINENSNDLLKFYGLSTLIELMTEGVNANPNGLNLVKFEITKWLKFQVLGNKQTKLPDFLMNKISEVLTTLFMLMYSDCNGNQWNSFFDDLMSLFQVDSAISNTSPSTDGNILLGLEFFNKLCLMINSEIADQSFIRSKESQLKNNNIKDWMRDNDIMKLSNVWFQCLKLDEQIVSQCPGLINSTLDCIGSFISWIDINLIIDANNYYLQLIYKFLNLKETKISCYNCILAIISKKMKPMDKLAFLNMINLTNELTYYHQAISMNPQIITFDNLEVWESLTKLITSFGIEFTIIIEQVNDDQKLDTLYKQSVISNVDSILLEKIIPILLEFMNNEFDSITAKTFPFWSNYLAFLKKYKASSPNFVPLHKDFLDNFQQICFKRMKFSDDEVTQDDFEEFNETVRFKLKNFQEIIVVIDPSLFLNNISQEISANLMNCKNESWQIFELTIYQIFNLSECTKNNYFGLNKNEIMTSQPSLTLVRFLNELLMMKDFLLAIDNEQIQILFMELIVKNYNFIFSTSANTANATDDDEKYLLILNIFMSSFAMFNKRENVRLRSWYLFTRFLKLTRINLKKILFANKNLVNEITNKISPLLHIKVTSINAQGTDDNDTIFDNQLYIFEGIGFIITLNNSSQELTAATANTPIDYDILDQILTPLFTQLEGCITQGASPVVILECHHILMAIGTLARGLHIGLVPENQVNNMVVNKKLINDSLIHKFSNIAEVILVTFSFFNKFENIRDASRFTFARLIPILSNKILPFINKLIELILSSTDLKSWEMIDFLGFLSQLIHMFHTDTDCYQLFNQLLTPLINKVHSIIEEIDEQHDQQSSSNKPIDTAVTATSVNKNIVVTDSYRDKILLKKAYCTFLQSFTNNSVTSILLSDINRAILPVILNDLVTYTPQEIQETSMMKVSLNVLCNFIKCFGNGTCLDNDDINKDPNLKIDGLNEYFIMKCVPIIFEIPFNPIYKFNIKEGNFKTMAYDLARLLRELFIVSSNPTTNENECVKYLTQIYLPQIQLPQELTIQLVNMLTTMGQKQFEKWFVDNFISVLKQGQ", "binding": "binds"}
{"binder": "MEX67 (protein, UniProt Q99257 1-599) MSGFHNVGNINMMAQQQMQQNRIKISVRNWQNATMNDLINFISRNARVAVYDAHVEGPLVIGYVNSKAEAESLMKWNGVRFAGSNLKFELLDNNGASAGTSDTISFLRGVLLKRYDPQTKLLNLGALHSDPELIQKGVFSSISTQSKMFPAMMKLASTEKSLIVESVNLADNQLKDISAISTLAQTFPNLKNLCLANNQIFRFRSLEVWKNKFKDLRELLMTNNPITTDKLYRTEMLRLFPKLVVLDNVIVRDEQKLQTVYSLPMKIQQFFFENDALGQSSTDFATNFLNLWDNNREQLLNLYSPQSQFSVSVDSTIPPSTVTDSDQTPAFGYYMSSSRNISKVSSEKSIQQRLSIGQESINSIFKTLPKTKHHLQEQPNEYSMETISYPQINGFVITLHGFFEETGKPELESNKKTGKNNYQKNRRYNHGYNSTSNNKLSKKSFDRTWVIVPMNNSVIIASDLLTVRAYSTGAWKTASIAIAQPPQQQASVLPQVASMNPNITTPPQPQPSVVPGGMSIPGAPQGAMVMAPTLQLPPDVQSRLNPVQLELLNKLHLETKLNAEYTFMLAEQSNWNYEVAIKGFQSSMNGIPREAFVQF", "binding": "binds"}
{"binder": "NUP53 (protein, UniProt Q03790 1-475) MADLQKQENSSRFTNVSVIAPESQGQHEQQKQQEQLEQQKQPTGLLKGLNGFPSAPQPLFMEDPPSTVSGELNDNPAWFNNPRKRAIPNSIIKRSNGQSLSPVRSDSADVPAFSNSNGFNNVTFGSKKDPRILKNVSPNDNNSANNNAHSSDLGTVVFDSNEAPPKTSLADWQKEDGIFSSKTDNIEDPNLSSNITFDGKPTATPSPFRPLEKTSRILNFFDKNTKTTPNTASSEASAGSKEGASTNWDDHAIIIFGYPETIANSIILHFANFGEILEDFRVIKDFKKLNSKNMSKSPSLTAQKYPIYTGDGWVKLTYKSELSKSRALQENGIIMNGTLIGCVSYSPAALKQLASLKKSEEIINNKTSSQTSLSSKDLSNYRKTEGIFEKAKAKAVTSKVRNAEFKVSKNSTSFKNPRRLEIKDGRSLFLRNRGKIHSGVLSSIESDLKKREQASKSKKSWLNRLNNWLFGWNDL", "binding": "binds"}
{"binder": "NUP133 (protein, UniProt P36161 1-1157) MSEKKVHLRLRKELSVPIAVVENESLAQLSYEEESQASLMDISMEQQQLRLHSHFDNSKVFTENNRYIVKTLQTDYSSGFSNDDELNGYIDMQIGYGLVNDHKKVYIWNIHSTQKDTPYITVPFRSDDNDEIAVAPRCILTFPATMDESPLALNPNDQDETGGLIIIKGSKAIYYEDINSINNLNFKLSEKFSHELELPINSSGGEKCDLMLNCEPAGIVLSTNMGRIFFITIRNSMGKPQLKLGKLLNKPFKLGIWSKIFNTNSSVVSLRNGPILGKGTRLVYITTNKGIFQTWQLSATNSHPTKLIDVNIYEAILESLQDLYPFAHGTLKIWDSHPLQDESSQLFLSSIYDSSCNETYYILSTIIFDSSSNSFTIFSTYRLNTFMESITDTKFKPKIFIPQMENANDTNEVTSILVMFPNAVVITQVNSKLDSSYSMRRKWEDIVSLRNDIDIIGSGYDSKSLYVLTKQMGVLQFFVKENEETNSKPEVGFVKSHVDQAVYFSKINANPIDFNLPPEISLDQESIEHDLKLTSEEIFHSNGKYIPPMLNTLGQHLSVRKEFFQNFLTFVAKNFNYKISPELKLDLIEKFEILNCCIKFNSIIRQSDVLNDIWEKTLSNYNLTQNEHLTTKTVVINSPDVFPVIFKQFLNHVVFVLFPSQNQNFKLNVTNLINLCFYDGILEEGEKTIRYELLELDPMEVDTSKLPWFINFDYLNCINQCFFDFTFACEEEGSLDSYKEGLLKIVKILYYQFNQFKIWINTQPVKSVNANDNFININNLYDDNHLDWNHVLCKVNLKEQCIQIAEFYKDLSGLVQTLQTLDQNDSTTVSLYETFFNEFPKEFSFTLFEYLIKHKKLNDLIFRFPQQHDVLIQFFQESAPKYGHVAWIQQILDGSYADAMNTLKNITVDDSKKGESLSECELHLNVAKLSSLLVEKDNLDINTLRKIQYNLDTIDAEKNISNKLKKGEVQICKRFKNGSIREVFNILVEELKSTTVVNLSDLVELYSMLDDEESLFIPLRLLSVDGNLLNFEVKKFLNALVWRRIVLLNASNEGDKLLQHIVKRVFDEELPKNNDFPLPSVDLLCDKSLLTPEYISETYGRFPIDQNAIREEIYEEISQVETLNSDNSLEIKLHSTIGSVAKEKNYTINYETNTVEY", "binding": "binds"}
{"binder": "NUP120 (protein, UniProt P35729 1-1037) MACLSRIDANLLQYYEKPEPNNTVDLYVSNNSNNNGLKEGDKSISTPVPQPYGSEYSNCLLLSNSEYICYHFSSRSTLLTFYPLSDAYHGKTINIHLPNASMNQRYTLTIQEVEQQLLVNVILKDGSFLTLQLPLSFLFSSANTLNGEWFHLQNPYDFTVRVPHFLFYVSPQFSVVFLEDGGLLGLKKVDGVHYEPLLFNDNSYLKSLTRFFSRSSKSDYDSVISCKLFHERYLIVLTQNCHLKIWDLTSFTLIQDYDMVSQSDSDPSHFRKVEAVGEYLSLYNNTLVTLLPLENGLFQMGTLLVDSSGILTYTFQNNIPTNLSASAIWSIVDLVLTRPLELNVEASYLNLIVLWKSGTASKLQILNVNDESFKNYEWIESVNKSLVDLQSEHDLDIVTKTGDVERGFCNLKSRYGTQIFERAQQILSENKIIMAHNEDEEYLANLETILRDVKTAFNEASSITLYGDEIILVNCFQPYNHSLYKLNTTVENWFYNMHSETDGSELFKYLRTLNGFASTLSNDVLRSISKKFLDIITGELPDSMTTVEKFTDIFKNCLENQFEITNLKILFDELNSFDIPVVLNDLINNQMKPGIFWKKDFISAIKFDGFTSIISLESLHQLLSIHYRITLQVLLTFVLFDLDTEIFGQHISTLLDLHYKQFLLLNLYRQDKCLLAEVLLKDSSEFSFGVKFFNYGQLIAYIDSLNSNVYNASITENSFFMTFFRSYIIENTSHKNIRFFLENVECPFYLRHNEVQEFMFAMTLFSCGNFDQSYEIFQLHDYPEAINDKLPTFLEDLKSENYHGDSIWKDLLCTFTVPYRHSAFYYQLSLLFDRNNSQEFALKCISKSAEYSLKEIQIEELQDFKEKQHIHYLNLLIHFRMFEEVLDVLRLGHECLSDTVRTNFLQLLLQEDIYSRDFFSTLLRLCNAHSDNGELYLRTVDIKIVDSILSQNLRSGDWECFKKLYCFRMLNKSERAAAEVLYQYILMQADLDVIRKRKCYLMVINVLSSFDSAYDQWILNGSKVVTLTDLRDELRGL", "binding": "binds"}
{"binder": "PER33 (protein, UniProt Q12144 1-273) MTVPRNRPMAPFGTIIKSRIKQPQFYWFIGHFLTIFNFIQFHLSITSKQNQLSCYRRSLFYISVTYAIVLYQFFKSDQLKFNFTLLRQEMKKLDNLQYFAMLFILFLLSQFNIIISGSLYSPVIFSIFHFLNYFKENLLPFLPLIPLNLKNLLNSKITVFIQNYNGFFLQMAQVFEIICGLRVGLFLVPFNFFLLLVRRANVSFEVVGTMLAGLTYVWFFKLRYLQSESMRQIFKQYVLRLDAYVSRTLPPYCSRLWNGYKNFVMTVFWKIPV", "binding": "binds"}
